## Assay results

The results are deposited in PubChem (AID912; NCATS, 2007).

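Uptake of anthrax lethal toxin into cultured cells, read by FRET (460/530 nm ratio) and reported from the 460 nm channel; the cell line is not named here.
Each compound was tested as a concentration series from about 0.0005 to 40 µM.
The number is the fitted AC50 of the 460 nm signal alone; lower values mean a more potent effect. A falling signal goes with compounds filed as inhibitors or cytotoxic, a rising one with activators or fluorescent compounds (inferred from the filed classes).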

Values are in µM.
Common to all entries: measured here: 460 nm channel.
This is a side read-out of the assay, for part of the compounds, not drawn at random.
Potencies fitted to partial, single-point or poorly fitting curves are rough.
The first word of each remark tells which way the curve ran; it can be opposite to the aim of the assay.

structure,AC50 (µM),curve
C=C[C@@]1(C)C=C2CC[C@@H]3[C@](C)(CCC[C@@]3(C)C(=O)O)[C@H]2CC1,12.59,"falling, single point"
Cc1nc(NC(=O)CSc2nnnn2Cc2ccccc2)sc1C,12.59,"rising, partial curve"
Cc1ccc(OC(=O)CCC(=O)OCCCC(F)(F)C(F)(F)F)cc1,3.981,"falling, partial curve"
CCOC(=O)c1c(C)c(C(=O)N2CCc3ccccc3C2)c(C)n1CC,10,"falling, partial curve"
CCOC(=O)c1nnn(-c2nonc2-n2cccc2)c1CN1CCCCC1,7.943,"falling, partial curve"
C[C@@H](N)C1CCC(C(=O)Nc2ccncc2)CC1 (stereo partly shown),7.943,"falling, partial curve"
O=C(c1ccco1)[C@@H]1[C@@H]2C(=O)N(c3ccc(F)cc3)C(=O)[C@@H]2C2c3ccccc3C=CN21 (stereo partly shown),0.3981,"falling, partial curve"
O=C(CSc1ccc(Cl)cc1)Nc1ccc(N2CCN(C(=O)c3ccco3)CC2)cc1,31.62,"falling, single point"
Brc1c(Br)c(Br)c2n[nH]nc2c1Br,15.85,"falling, partial curve"
CC(C)C(=O)C(C)(C)CCc1ccccn1,1,"falling, single point"
Cc1ccc(CNC(=O)CCS(=O)(=O)c2cc(Br)cc3c2N(C(=O)C2CC2)CC3)o1,31.62,"falling, single point"
Oc1ccc(Cl)cc1Cc1cc(Cl)cc(Cc2cc(Cl)ccc2O)c1O,3.981,"falling, partial curve"
COc1ccccc1NC(=O)CSCC(N)=O,5.012,"falling, partial curve"
Cc1cc(C)c2c(=O)n(CC(=O)NCCCN3CCOCC3)sc2n1,2.512,"falling, partial curve"
COc1cccc(Cn2c(=O)c(CCc3ccccc3)nc3cnc(N(C)C)nc32)c1,10,"rising, partial curve"
O=C(Nc1ccc(Nc2ccccc2)cc1)c1ccc(Br)o1,12.59,"falling, partial curve"
O=C(NCCN1CCOCC1)Nc1ccc(Cl)cc1,0.5012,"falling, full curve, poor fit"
CC[C@@H]1[C@@H]2Cc3ccc(O)cc3[C@@]1(CC)CCN2C,5.012,"rising, single point"
Nc1c2c(nc3ccccc13)CCCC2,31.62,"falling, partial curve"
CCNc1ncc2nc(-c3cn(C)c4ccccc34)c(=O)n(Cc3cccc(OC)c3)c2n1,10,"rising, partial curve"
Cc1cc(C)cc(Nc2ccc(C(=O)O)cc2N)c1,10,"rising, single point"
Cc1c(NC(=O)c2ccc(N3C(=O)C4C5C=CC(C5)C4C3=O)cc2)c(=O)n(-c2ccccc2)n1C (stereo not shown),10,"rising, single point"
O=C(Nc1nc(-c2ccccc2)cs1)c1cccs1,12.59,"falling, partial curve"
O=C(CC1NC(=O)NC1=O)Nc1cccc2ccccc12 (stereo not shown),1.995,"falling, partial curve"
COC(=O)N1CCC2(CCCN(C(c3ccccc3)c3ccccc3)C2)CC1,1.259,"falling, partial curve"
CC1=NC(Nc2nc(C)c3ccccc3n2)=NC(C)(C)C1,25.12,"falling, partial curve"
Cc1cccc(N(CC(=O)NC2CCCC2)C(=O)CCCC(=O)Nc2ccccn2)c1,31.62,"rising, single point"
COC(=O)[C@@]1(Cc2ccc(OC)cc2)[C@H]2c3cc(C(=O)N4CCCC4)n(CCc4ccc(O)c(O)c4)c3C[C@H]2CN1C(=O)c1ccccc1,12.59,"rising, partial curve"
Cc1ccc(C)c(N2CCN(C(=O)C3CCN(S(=O)(=O)c4cccc5nsnc45)CC3)CC2)c1,19.95,"rising, single point"
O=S(=O)(NCCC1=CCCCC1)c1cccc2nsnc12,0.07943,"rising, full curve, poor fit"
COCCn1c(=O)c(-c2cccc(C#N)c2)nc2cnc(N3CCNCC3)nc21,10,"rising, partial curve"
C=CC(=C)CCC=C(C)C,31.62,"falling, single point"
Cc1ccc(S(=O)(=O)N(CC(=O)N2CCOCC2)CC(=O)N2CCOCC2)cc1,0.003981,"falling, full curve, poor fit"
CCCCOC(=O)c1ccc(NC(=O)c2ocnc2C)cc1,2.512,"falling, single point"
CCOC(=O)C1CCN(C(=O)CSc2cc(=O)n(CC)c3ccccc23)CC1,5.012,"rising, partial curve"

Some entries from above, unchanged:

{"structure": "Cc1c(NC(=O)c2ccc(N3C(=O)C4C5C=CC(C5)C4C3=O)cc2)c(=O)n(-c2ccccc2)n1C", "stereo": "stereo not shown", "AC50 (µM)": "10", "curve": "rising, single point"}
{"structure": "COc1ccccc1NC(=O)CSCC(N)=O", "AC50 (µM)": "5.012", "curve": "falling, partial curve"}
{"structure": "Cc1ccc(S(=O)(=O)N(CC(=O)N2CCOCC2)CC(=O)N2CCOCC2)cc1", "AC50 (µM)": "0.003981", "curve": "falling, full curve, poor fit"}